{"source": "PubChem BioAssay AID483", "about": "(Columbia University Molecular Screening Center, 2006)", "note": "The other results are listed elsewhere or left out. Some of these compounds have results that are not shown, active ones among them.", "data": [{"test": "reduction of polyQ htt aggregates in cells – imaging, exon1htt(103Q)mCFP cells, high-content imaging, primary screen (AID 483);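 note: compound exposure lasted 3 days before fixation; percent of the per-plate median nuclei count of sample wells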", "conditions": "exon1htt(103Q)mCFP cell line, aggregate imaging; measured here: cell count, toxicity; at 2 µM", "units": {"nuclei count": "%"}, "values": [{"smiles": "O=C(OC1CN2CCC1CC2)C(CO)(c1ccccc1)c1ccccc1", "note": "(stereo unspecified)", "nuclei count": 111}]}]}
